From paper PMC3134442
These are yes or no findings as the source states them, for the method shown. Binding seen in cells or lysates may run through a third protein. Some entries that bind do so weakly or less than the wild type.

Sequences of proteins named here, by UniProt entry; tags and fusion partners are left off.
UniProt P14126: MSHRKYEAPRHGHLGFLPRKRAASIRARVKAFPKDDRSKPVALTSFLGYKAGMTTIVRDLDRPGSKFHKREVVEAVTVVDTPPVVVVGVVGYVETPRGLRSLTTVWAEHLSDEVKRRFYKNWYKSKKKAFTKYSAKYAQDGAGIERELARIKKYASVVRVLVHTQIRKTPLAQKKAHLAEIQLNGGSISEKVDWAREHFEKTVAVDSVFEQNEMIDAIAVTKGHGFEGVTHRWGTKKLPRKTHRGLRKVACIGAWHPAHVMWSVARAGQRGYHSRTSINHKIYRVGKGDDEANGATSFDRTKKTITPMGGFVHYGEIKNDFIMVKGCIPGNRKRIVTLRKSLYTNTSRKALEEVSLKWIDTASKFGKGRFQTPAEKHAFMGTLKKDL

Key:
Experiment in all cases: co-IP; TAP-tagged bait from cycloheximide-treated yeast lysate captured on IgG-coupled magnetic beads, 4°C, 2 h, 50 mM Hepes-KOH pH 7.5, 140 mM KCl, 10 mM MgCl2, NP-40; eluted with TEV protease; eluate immunoblotted (anti-Rpl3, anti-Egd2, anti-TAP)
[1] = molecular target: T1, Srp72-TAP (S. cerevisiae) (UniProt P38688)
T1 sequence: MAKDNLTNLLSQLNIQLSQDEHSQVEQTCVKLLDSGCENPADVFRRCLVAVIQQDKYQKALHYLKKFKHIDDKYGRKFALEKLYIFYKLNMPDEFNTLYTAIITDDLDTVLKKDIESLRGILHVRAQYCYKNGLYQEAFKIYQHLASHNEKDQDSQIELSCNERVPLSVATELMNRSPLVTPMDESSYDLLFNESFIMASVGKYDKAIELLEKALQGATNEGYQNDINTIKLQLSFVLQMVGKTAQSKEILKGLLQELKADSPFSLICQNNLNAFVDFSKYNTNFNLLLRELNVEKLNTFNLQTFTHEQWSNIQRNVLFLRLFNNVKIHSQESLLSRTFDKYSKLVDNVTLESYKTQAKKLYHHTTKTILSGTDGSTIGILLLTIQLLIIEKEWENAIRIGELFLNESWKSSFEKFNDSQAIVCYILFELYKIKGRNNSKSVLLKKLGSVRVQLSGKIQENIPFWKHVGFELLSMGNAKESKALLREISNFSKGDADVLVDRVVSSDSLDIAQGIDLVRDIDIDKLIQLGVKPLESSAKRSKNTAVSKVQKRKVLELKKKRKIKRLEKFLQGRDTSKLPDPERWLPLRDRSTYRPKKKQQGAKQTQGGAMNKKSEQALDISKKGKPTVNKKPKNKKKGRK

Btt1-TAP (S. cerevisiae) = molecular target: T2, Btt1-TAP (S. cerevisiae) (UniProt P40314)
T2 sequence: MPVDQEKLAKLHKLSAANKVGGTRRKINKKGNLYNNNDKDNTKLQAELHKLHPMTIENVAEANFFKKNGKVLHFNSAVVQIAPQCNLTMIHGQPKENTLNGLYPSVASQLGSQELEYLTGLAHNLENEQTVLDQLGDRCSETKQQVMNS

Egd1-TAP (S. cerevisiae) = molecular target: T3, Egd1-TAP (S. cerevisiae) (UniProt Q02642)
T3 sequence: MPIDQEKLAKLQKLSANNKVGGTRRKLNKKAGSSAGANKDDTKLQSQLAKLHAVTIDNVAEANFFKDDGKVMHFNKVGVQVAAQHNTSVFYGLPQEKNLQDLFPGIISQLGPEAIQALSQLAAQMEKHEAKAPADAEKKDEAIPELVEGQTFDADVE

[2] = molecular target: T4, Srp68-TAP (S. cerevisiae) (UniProt P38687)
T4 sequence: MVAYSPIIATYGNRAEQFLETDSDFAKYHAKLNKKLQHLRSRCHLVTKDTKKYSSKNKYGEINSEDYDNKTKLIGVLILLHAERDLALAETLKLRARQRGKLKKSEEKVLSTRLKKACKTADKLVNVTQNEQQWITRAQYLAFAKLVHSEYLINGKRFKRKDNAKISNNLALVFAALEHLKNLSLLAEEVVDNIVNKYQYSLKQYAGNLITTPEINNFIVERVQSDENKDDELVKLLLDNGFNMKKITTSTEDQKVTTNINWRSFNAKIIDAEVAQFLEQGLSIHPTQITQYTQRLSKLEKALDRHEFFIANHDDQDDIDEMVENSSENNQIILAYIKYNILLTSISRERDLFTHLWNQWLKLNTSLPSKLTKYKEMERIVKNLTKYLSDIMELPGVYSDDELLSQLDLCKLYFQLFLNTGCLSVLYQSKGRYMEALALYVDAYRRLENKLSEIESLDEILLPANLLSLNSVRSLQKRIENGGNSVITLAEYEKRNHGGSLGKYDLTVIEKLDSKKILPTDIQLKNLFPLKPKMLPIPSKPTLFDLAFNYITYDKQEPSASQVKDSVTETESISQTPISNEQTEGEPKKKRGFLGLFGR

[3] = molecular target: T5, Srp54-TAP (S. cerevisiae) (UniProt P20424)
T5 sequence: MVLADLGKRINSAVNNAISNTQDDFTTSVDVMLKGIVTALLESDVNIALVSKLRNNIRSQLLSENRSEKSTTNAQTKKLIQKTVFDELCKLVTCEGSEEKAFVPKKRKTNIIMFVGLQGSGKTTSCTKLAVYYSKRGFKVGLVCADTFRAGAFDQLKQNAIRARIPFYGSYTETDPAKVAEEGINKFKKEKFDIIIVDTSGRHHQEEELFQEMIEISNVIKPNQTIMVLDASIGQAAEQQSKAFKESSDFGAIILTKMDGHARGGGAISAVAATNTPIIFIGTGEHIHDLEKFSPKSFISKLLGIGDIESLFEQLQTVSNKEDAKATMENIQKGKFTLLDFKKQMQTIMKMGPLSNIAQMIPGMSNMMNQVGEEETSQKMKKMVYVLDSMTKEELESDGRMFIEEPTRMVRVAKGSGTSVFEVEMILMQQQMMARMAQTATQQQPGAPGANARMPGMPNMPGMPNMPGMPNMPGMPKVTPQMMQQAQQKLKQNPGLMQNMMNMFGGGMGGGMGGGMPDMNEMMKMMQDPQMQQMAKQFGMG

Egd2-TAP (S. cerevisiae) = molecular target: T6, Egd2-TAP (S. cerevisiae) (UniProt P38879)
T6 sequence: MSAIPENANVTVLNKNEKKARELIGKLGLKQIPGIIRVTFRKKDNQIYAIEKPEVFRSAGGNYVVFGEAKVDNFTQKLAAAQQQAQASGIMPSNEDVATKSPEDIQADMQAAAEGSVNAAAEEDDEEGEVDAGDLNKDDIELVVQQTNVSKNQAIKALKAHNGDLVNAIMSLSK

- binding [1]: binds
- binding (Btt1-TAP (S. cerevisiae)): binds
- binding (Egd1-TAP (S. cerevisiae)): binds
- binding [2]: binds
- binding [3]: binds
- binding (Egd2-TAP (S. cerevisiae)): binds
Substance: ribosomal protein Rpl3 (from UniProt P14126 1-387)
